Test results: article PMC7862700
The list shows a part of the results, in another mix than the full data. At the low end of the ranking the order means little.

Legend:
Assay in all cases: DAPPL (digital affinity profiling via proximity ligation, sequencing)
Settings in all cases: 10 mM Tris-HCl pH 7.5, 50 mM NaCl, 1 mM DTT, 4% glycerol, room temperature, 30 min; GST-TFs on glutathione beads, 16-mer random dsDNA library, 0.1% …; high values mean tight binding; double strand, one strand shown; scale: fold enrichment (6-mer frequency, TF over GST control)
ELK1 = target: T1, ELK1 (UniProt P19419)
T1 sequence: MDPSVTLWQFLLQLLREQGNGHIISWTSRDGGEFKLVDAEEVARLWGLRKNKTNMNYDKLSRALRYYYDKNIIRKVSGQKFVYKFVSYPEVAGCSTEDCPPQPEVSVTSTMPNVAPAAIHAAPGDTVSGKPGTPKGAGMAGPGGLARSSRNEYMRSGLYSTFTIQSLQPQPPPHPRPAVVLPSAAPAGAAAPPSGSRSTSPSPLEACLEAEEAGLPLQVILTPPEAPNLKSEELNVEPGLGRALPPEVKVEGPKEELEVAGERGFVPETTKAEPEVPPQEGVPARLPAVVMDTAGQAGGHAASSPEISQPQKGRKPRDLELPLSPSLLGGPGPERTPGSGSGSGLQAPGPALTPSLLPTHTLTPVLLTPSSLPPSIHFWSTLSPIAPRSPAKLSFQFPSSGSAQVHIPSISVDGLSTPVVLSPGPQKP

ELK3 = target: T2, ELK3 (UniProt P41970)
T2 sequence: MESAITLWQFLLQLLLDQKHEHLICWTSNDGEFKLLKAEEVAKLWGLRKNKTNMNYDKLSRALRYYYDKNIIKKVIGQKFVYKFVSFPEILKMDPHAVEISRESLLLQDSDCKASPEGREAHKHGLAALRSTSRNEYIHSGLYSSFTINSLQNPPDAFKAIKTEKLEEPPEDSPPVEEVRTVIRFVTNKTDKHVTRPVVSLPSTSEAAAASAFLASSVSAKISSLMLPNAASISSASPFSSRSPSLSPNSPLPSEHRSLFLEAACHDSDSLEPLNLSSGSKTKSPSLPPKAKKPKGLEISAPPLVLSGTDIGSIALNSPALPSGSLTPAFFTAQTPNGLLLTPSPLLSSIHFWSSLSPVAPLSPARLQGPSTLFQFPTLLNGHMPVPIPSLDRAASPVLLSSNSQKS

SPIC = target: T3, SPIC (UniProt Q8N5J4)
T3 sequence: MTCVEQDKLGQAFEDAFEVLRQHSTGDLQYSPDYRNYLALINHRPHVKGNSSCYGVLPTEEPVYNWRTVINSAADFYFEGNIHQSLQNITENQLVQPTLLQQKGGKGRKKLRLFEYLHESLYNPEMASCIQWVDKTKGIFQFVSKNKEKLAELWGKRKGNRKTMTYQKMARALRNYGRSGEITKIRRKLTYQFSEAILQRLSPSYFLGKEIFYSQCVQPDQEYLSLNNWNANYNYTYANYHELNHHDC

ETS2 = target: T4, ETS2 (UniProt P15036)
T4 sequence: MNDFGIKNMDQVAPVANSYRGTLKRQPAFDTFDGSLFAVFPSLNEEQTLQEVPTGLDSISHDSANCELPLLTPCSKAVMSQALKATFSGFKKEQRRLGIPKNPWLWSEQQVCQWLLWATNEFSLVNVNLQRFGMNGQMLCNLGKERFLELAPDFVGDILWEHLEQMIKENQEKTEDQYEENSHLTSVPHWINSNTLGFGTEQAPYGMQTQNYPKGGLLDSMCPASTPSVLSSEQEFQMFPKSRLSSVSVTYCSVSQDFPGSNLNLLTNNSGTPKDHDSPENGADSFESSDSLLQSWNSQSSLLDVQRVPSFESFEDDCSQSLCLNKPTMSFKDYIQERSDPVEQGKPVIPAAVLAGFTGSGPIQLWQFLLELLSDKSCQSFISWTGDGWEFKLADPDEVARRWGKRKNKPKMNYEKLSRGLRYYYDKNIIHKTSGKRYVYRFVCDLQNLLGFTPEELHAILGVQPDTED

ETV3 = target: T5, ETV3 (UniProt P41162-2)
T5 sequence: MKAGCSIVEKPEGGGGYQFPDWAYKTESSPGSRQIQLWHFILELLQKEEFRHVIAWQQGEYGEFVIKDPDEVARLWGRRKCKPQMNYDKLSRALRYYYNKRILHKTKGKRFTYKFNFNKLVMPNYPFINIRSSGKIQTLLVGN

**Q.** For GTGTCG, which binding signal (ELK1) is on record?
**A.** Its binding signal is 0.654.

**Q.** And the binding signal (ELK3)?
**A.** The binding signal was 0.572.

**Q.** And the binding signal (SPIC)?
**A.** Its binding signal is 0.571.

**Q.** And the binding signal (ETS2)?
**A.** The binding signal was 0.625.

**Q.** What about the binding signal (ETV3) of the same sequence?
**A.** The binding signal was 0.634.

**Q.** How did the binding signal (ELK1) turn out when GGCGTA was run?
**A.** Its binding signal is 0.687.

**Q.** What about the binding signal (ELK3) of the same sequence?
**A.** Its binding signal is 0.647.

**Q.** What about the binding signal (SPIC) of the same sequence?
**A.** Its binding signal is 0.72.

**Q.** What about the binding signal (ETS2) of the same sequence?
**A.** The binding signal was 0.564.

**Q.** What about the binding signal (ETV3) of the same sequence?
**A.** The binding signal was 0.607.

**Q.** Which binding signal (ELK1) does the source give for GACACG here?
**A.** The binding signal was 0.711.

**Q.** And the binding signal (ELK3)?
**A.** The binding signal was 0.678.

**Q.** What about the binding signal (SPIC) of the same sequence?
**A.** Its binding signal is 0.65.

**Q.** And the binding signal (ETS2)?
**A.** The binding signal was 0.729.

**Q.** What about the binding signal (ETV3) of the same sequence?
**A.** The binding signal was 0.686.

**Q.** With GTCTGA as the sequence, how does the binding signal (ELK1) read?
**A.** Its binding signal is 0.75.

**Q.** And the binding signal (ELK3)?
**A.** Its binding signal is 0.735.

**Q.** And the binding signal (SPIC)?
**A.** The binding signal was 0.839.

**Q.** What about the binding signal (ETS2) of the same sequence?
**A.** The binding signal was 0.777.

**Q.** And the binding signal (ETV3)?
**A.** The binding signal was 0.751.

**Q.** Which binding signal (ELK1) does the source give for CCAGGA here?
**A.** Its binding signal is 0.634.

**Q.** And the binding signal (ELK3)?
**A.** Its binding signal is 0.622.

**Q.** What about the binding signal (SPIC) of the same sequence?
**A.** The binding signal was 0.657.

**Q.** What about the binding signal (ETS2) of the same sequence?
**A.** Its binding signal is 0.665.

**Q.** What about the binding signal (ETV3) of the same sequence?
**A.** The binding signal was 0.756.

**Q.** What does the source list for GAGCGC?
**A.** binding signal (ELK1): 0.625; binding signal (ELK3): 0.673; binding signal (SPIC): 0.693; binding signal (ETS2): 0.578; binding signal (ETV3): 0.626

**Q.** Which results are given for CAACGT?
**A.** binding signal (ELK1): 0.901; binding signal (ELK3): 0.999; binding signal (SPIC): 0.844; binding signal (ETS2): 0.861; binding signal (ETV3): 0.865

**Q.** Which binding signal (ELK1) does the source give for CGCGGA here?
**A.** The binding signal was 0.863.

**Q.** And the binding signal (ELK3)?
**A.** Its binding signal is 0.896.

**Q.** What about the binding signal (SPIC) of the same sequence?
**A.** The binding signal was 0.954.

**Q.** And the binding signal (ETS2)?
**A.** Its binding signal is 1.

**Q.** What about the binding signal (ETV3) of the same sequence?
**A.** The binding signal was 1.01.

**Q.** With CCGGGA as the sequence, how does the binding signal (ELK1) read?
**A.** Its binding signal is 0.528.

**Q.** And the binding signal (ELK3)?
**A.** Its binding signal is 0.498.

**Q.** What about the binding signal (SPIC) of the same sequence?
**A.** The binding signal was 0.596.

**Q.** What about the binding signal (ETS2) of the same sequence?
**A.** Its binding signal is 0.495.

**Q.** And the binding signal (ETV3)?
**A.** The binding signal was 0.521.

**Q.** What does the source list for CGGGGA?
**A.** binding signal (ELK1): 0.452; binding signal (ELK3): 0.448; binding signal (SPIC): 0.475; binding signal (ETS2): 0.426; binding signal (ETV3): 0.407

**Q.** For TAGAGT, which binding signal (ELK1) is on record?
**A.** Its binding signal is 0.813.

**Q.** What about the binding signal (ELK3) of the same sequence?
**A.** The binding signal was 0.839.

**Q.** What about the binding signal (SPIC) of the same sequence?
**A.** Its binding signal is 0.659.

**Q.** And the binding signal (ETS2)?
**A.** Its binding signal is 0.769.

**Q.** And the binding signal (ETV3)?
**A.** Its binding signal is 0.778.

**Q.** What does the source list for AGACTA?
**A.** binding signal (ELK1): 0.837; binding signal (ELK3): 0.803; binding signal (SPIC): 0.807; binding signal (ETS2): 0.789; binding signal (ETV3): 0.799

**Q.** How did the binding signal (ELK1) turn out when GCGGGT was run?
**A.** The binding signal was 0.575.

**Q.** What about the binding signal (ELK3) of the same sequence?
**A.** Its binding signal is 0.581.

**Q.** And the binding signal (SPIC)?
**A.** Its binding signal is 0.601.

**Q.** What about the binding signal (ETS2) of the same sequence?
**A.** The binding signal was 0.613.

**Q.** What about the binding signal (ETV3) of the same sequence?
**A.** The binding signal was 0.618.

**Q.** For GCCGAG, which binding signal (ELK1) is on record?
**A.** Its binding signal is 0.707.

**Q.** And the binding signal (ELK3)?
**A.** The binding signal was 0.678.

**Q.** And the binding signal (SPIC)?
**A.** The binding signal was 0.645.

**Q.** What about the binding signal (ETS2) of the same sequence?
**A.** The binding signal was 0.622.

**Q.** And the binding signal (ETV3)?
**A.** The binding signal was 0.67.

**Q.** For CGGTCG, which binding signal (ELK1) is on record?
**A.** Its binding signal is 0.4.

**Q.** What about the binding signal (ELK3) of the same sequence?
**A.** Its binding signal is 0.382.

**Q.** What about the binding signal (SPIC) of the same sequence?
**A.** The binding signal was 0.429.

**Q.** What about the binding signal (ETS2) of the same sequence?
**A.** Its binding signal is 0.401.

**Q.** What about the binding signal (ETV3) of the same sequence?
**A.** The binding signal was 0.425.

**Q.** For CTGAGA, which binding signal (ELK1) is on record?
**A.** The binding signal was 0.82.

**Q.** And the binding signal (ELK3)?
**A.** The binding signal was 0.881.

**Q.** What about the binding signal (SPIC) of the same sequence?
**A.** The binding signal was 0.836.

**Q.** And the binding signal (ETS2)?
**A.** The binding signal was 0.828.

**Q.** What about the binding signal (ETV3) of the same sequence?
**A.** Its binding signal is 0.79.

**Q.** Which binding signal (ELK1) does the source give for GGAGTC here?
**A.** Its binding signal is 0.219.

**Q.** What about the binding signal (ELK3) of the same sequence?
**A.** Its binding signal is 0.265.

**Q.** And the binding signal (SPIC)?
**A.** Its binding signal is 0.217.

**Q.** What about the binding signal (ETS2) of the same sequence?
**A.** The binding signal was 0.227.

**Q.** What about the binding signal (ETV3) of the same sequence?
**A.** The binding signal was 0.211.

**Q.** With AGGAGA as the sequence, how does the binding signal (ELK1) read?
**A.** The binding signal was 0.211.

**Q.** What about the binding signal (ELK3) of the same sequence?
**A.** Its binding signal is 0.229.

**Q.** What about the binding signal (SPIC) of the same sequence?
**A.** Its binding signal is 0.236.

**Q.** What about the binding signal (ETS2) of the same sequence?
**A.** The binding signal was 0.212.

**Q.** And the binding signal (ETV3)?
**A.** The binding signal was 0.212.

**Q.** Which results are given for GGAGAC?
**A.** binding signal (ELK1): 0.149; binding signal (ELK3): 0.157; binding signal (SPIC): 0.158; binding signal (ETS2): 0.163; binding signal (ETV3): 0.157

**Q.** For GCGCAG, which binding signal (ELK1) is on record?
**A.** The binding signal was 0.813.

**Q.** What about the binding signal (ELK3) of the same sequence?
**A.** Its binding signal is 0.858.

**Q.** What about the binding signal (SPIC) of the same sequence?
**A.** Its binding signal is 0.844.

**Q.** And the binding signal (ETS2)?
**A.** The binding signal was 0.782.

**Q.** And the binding signal (ETV3)?
**A.** The binding signal was 0.854.

**Q.** How did the binding signal (ELK1) turn out when GAGATT was run?
**A.** Its binding signal is 0.706.

**Q.** And the binding signal (ELK3)?
**A.** The binding signal was 0.672.

**Q.** What about the binding signal (SPIC) of the same sequence?
**A.** Its binding signal is 0.709.

**Q.** What about the binding signal (ETS2) of the same sequence?
**A.** The binding signal was 0.663.

**Q.** What about the binding signal (ETV3) of the same sequence?
**A.** Its binding signal is 0.634.

**Q.** Which binding signal (ELK1) does the source give for CCTGAG here?
**A.** Its binding signal is 0.853.

**Q.** And the binding signal (ELK3)?
**A.** The binding signal was 0.772.

**Q.** What about the binding signal (SPIC) of the same sequence?
**A.** Its binding signal is 0.699.

**Q.** What about the binding signal (ETS2) of the same sequence?
**A.** Its binding signal is 0.81.

**Q.** What about the binding signal (ETV3) of the same sequence?
**A.** Its binding signal is 0.851.
